Some of the results follow. Shown are side measurements of this screen, not its main read-out; they come without a call. Compounds called inactive in the main read-out are mostly missing here. The note in brackets gives the kind of curve behind each potency; many fits are weak.
Assay: qHTS Assay to Find Inhibitors of Chronic Active B-Cell Receptor Signaling
Conditions: ABC-DLBCL IkBa-CBG/CBR reporter, luminescence ratio (green luciferase fused to IkBa over red control in TMD8 lymphoma cells), 4 h
How it was run: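 Concentration-response series (up to 46 uM) were applied to TMD8 dual-reporter cells for 4 h at 37C with doxycycline. Green/red ratio, after filter-overlap correction, defined %Activity; red signal alone was normalised to basal cells and zero luminescence.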

[1] = measured here: CBR red luminescence, cell number
[2] = measured here: IkBa-CBG green luminescence

Compound | AC50 [1] | AC50 [2]
CC(C)NC(=O)CSc1nnc(-c2ccc3ncccc3c2)n1C | 11.2 µM [rising, partial curve] | 
CCn1c(C(=O)N2CCc3ccccc3C2)cc2sccc21 | 11.6 µM [falling, partial curve, poor fit] | 
O=C(Oc1ccc(-c2ccccc2)cc1)C1C2CCCCC21 (stereo unspecified) | 29.1 µM [rising, single point] | 
COC(=O)c1ccccc1C(=O)c1cccc2ccccc12 | 12.6 µM [rising, partial curve, poor fit] | 
CC(=O)Nc1ccc(C2=NN(c3ccccc3)C(c3ccccc3)C2)cc1 (stereo unspecified) | 35.5 µM [falling, single point] | 
CSCCC(NC(=O)c1ccc([N+](=O)[O-])cc1Cl)C(=O)OCC(=O)N(C)C (stereo unspecified) | 0.326 µM [rising, partial curve, poor fit] | 
COc1ccc(NC(=O)CSCC(=O)OCc2cccc(OC)c2OC)cc1 | 25.9 µM [rising, partial curve, poor fit] | 
O=C(O)c1cccc(COc2ccc3c(c2)CCC3)c1 | 1.78 µM [falling, full curve] | 
Cc1ccc(C)c(OCCC(=O)OCC(=O)Nc2ccc(C)c(S(=O)(=O)N3CCCCC3)c2)c1 | 4.11 µM [rising, partial curve, poor fit] | 
CCOC(=O)C1=C(CSc2nc3c(cc2C#N)CN(C)CC3)OC(N)=C(C#N)C1c1ccc(F)cc1 (stereo unspecified) | 0.651 µM [falling, full curve, poor fit] | 
CC1=NN(c2ccccc2C(=O)O)C(=O)C1N=Nc1ccccc1 (stereo unspecified) | 14.1 µM [falling, partial curve] | 
CN(CC(=O)Nc1ccc(Cl)c(C(F)(F)F)c1)C(=O)c1cccc(N2C(=O)CCC2=O)c1 | 0.184 µM [rising, full curve, poor fit] | 
COc1ccc(C2(O)CC3CCC(C2)N3c2nc(C)cc(C)c2C#N)cc1 (stereo unspecified) | 0.184 µM [rising, partial curve, poor fit] | 
Cc1ccccc1-c1nn2c(-c3ccccc3)nnc2s1 | 31.6 µM [falling, single point] | 
CCC(OC(=O)c1cccs1)C(=O)NCc1ccc2c(c1)OCO2 (stereo unspecified) | 25.9 µM [rising, single point] | 
C=C(C)C1CC=C(C)/C(=N/Nc2ccccc2[N+](=O)[O-])C1 (stereo unspecified) | 18.4 µM [rising, partial curve] | 
CC1=C/C(=N\OS(=O)(=O)c2ccccc2)C(C(C)C)=CC1=O | 29.1 µM [falling, single point] | 
CC(C)(C)c1nnc2sc(SC/C(O)=C(\C#N)c3nc4ccccc4[nH]3)nn2c1=O | 0.708 µM [falling, full curve, poor fit] | 
CC(C)c1nnc(NC(=O)C2CCCN2C(=O)Nc2ccccc2F)s1 (stereo unspecified) |  | 35.5 µM [falling, single point]
C=CCOc1ccc(C(=O)/C=C2/C(=O)Nc3ccccc32)cc1 | 35.5 µM [rising, partial curve, poor fit] | 35.5 µM [falling, single point]
O=C(Nn1c(O)c(C=C2N=c3ccccc3=N2)sc1=S)c1ccccc1 | 0.058 µM [falling, full curve, poor fit] | 
COc1ccc(-n2cc(C#N)c(=O)n(Cc3ccc(F)cc3)c2=O)cc1 | 20 µM [falling, partial curve, poor fit] | 

Compound | AC50 [1] | AC50 [2]
COc1ccc(COC(=O)NNC(=O)c2ccccc2Cl)cc1 | 29.1 µM [rising, single point] | 
CN(C)S(=O)(=O)c1ccc(C(=O)NCc2cccs2)cc1 | 0.116 µM [rising, full curve, poor fit] | 
Nc1ccc(N=Nc2ccccc2)c(N)n1 | 11.6 µM [rising, partial curve, poor fit] | 
Cc1cccc2sc(N(CCCN(C)C)C(=O)CCS(=O)(=O)c3ccccc3)nc12 | 10 µM [falling, partial curve] | 
Cc1ccccc1OCCCn1c(=O)sc2ccccc21 | 6.31 µM [rising, full curve, poor fit] | 
O=C(c1cc(COc2ccc(F)cc2Cl)on1)N1CC[C@@H]2CCCC[C@H]2C1 | 6.31 µM [rising, single point] | 
CCc1ccc(Nc2nnc(SCC(=O)Nc3cccc(S(=O)(=O)NC4=NCCCCC4)c3)s2)cc1 | 16.4 µM [falling, partial curve] | 
CC(C)(CCl)C(=O)Nc1ccc(C(F)(F)F)cc1 | 11.2 µM [rising, partial curve, poor fit] | 
COc1ccc2cc(-c3nnc(Nc4ccccc4)s3)c(=O)oc2c1 | 15.8 µM [falling, partial curve, poor fit] | 
CC(C)C(=O)N1CCN(c2ccc(NC(=O)c3ccc([N+](=O)[O-])o3)cc2)CC1 | 35.5 µM [falling, single point] | 
c1ccc2c(CCNc3ncnc4nc[nH]c34)cccc2c1 | 20.6 µM [falling, single point] | 
COc1cccc(CNC(=O)c2ccc3c(=O)n4nc(Nc5ccccc5)sc4nc3c2)c1 | 7.94 µM [falling, partial curve] | 
Cc1cc(NC(=O)c2sc(Nc3ccc(F)c(Cl)c3)nc2N)no1 | 25.1 µM [falling, partial curve, poor fit] | 
Cc1cccnc1NC(=O)c1ccc(S(=O)(=O)N2CCC(C)CC2)cc1 | 18.4 µM [falling, single point] | 
CCCCCOC(=O)Nc1nnc(CCCCC)s1 | 29.1 µM [rising, single point] | 
COc1ccc(OCc2cc(C(=O)O)c(C)o2)cc1 | 8.91 µM [falling, partial curve, poor fit] | 
CCCCc1c(C)nc2ccc(Br)cc2c1SC(N)N | 25.1 µM [rising, single point] | 
CCOC(=O)c1cnc(-c2ccccc2)nc1Oc1ccc(C)cc1 | 5.62 µM [falling, single point] | 
CCC(=O)Nc1nnc(-c2ccncc2)s1 | 7.31 µM [falling, partial curve, poor fit] | 
CCC(CO)Oc1cc(NCc2cc(C)cc(C)c2)c2ncn(C(C)C)c2c1 (stereo unspecified) | 20.6 µM [falling, single point] | 
O=C(Cn1c(=O)cnc2ccccc21)NNC(=O)c1ccc(Cl)cc1 | 32.6 µM [rising, single point] | 
O=C(Nc1ccccc1)c1ccc(OC(=O)c2cc3ccccc3o2)cc1 | 2.91 µM [falling, partial curve] | 

Compound | AC50 [1] | AC50 [2]
O=C(O)c1ccccc1C(=O)NC1CCCCNC1=O (stereo unspecified) | 22.4 µM [falling, single point] | 
COc1ccc(CCNC(=O)CN2CCN(c3cccc(C(F)(F)F)c3)CC2)cc1 | 0.517 µM [falling, full curve] | 
CCCCOc1ccc(NC2=NC3(CCCCC3)N=C(N)N2)cc1 | 16.4 µM [rising, partial curve, poor fit] | 
CC(C)CSc1nc2c(c(=O)[nH]c(=O)n2C)n1CC(O)COc1cccc2ccccc12 (stereo unspecified) | 6.31 µM [rising, single point] | 
Cc1ccc2oc(C(=O)Nc3cc(C)on3)c(C)c2c1 | 29.1 µM [rising, single point] | 
COc1cc(C(=O)N2CCN(c3ccccc3Cl)CC2)ccc1OCC(=O)N1CCOCC1 | 2.31 µM [rising, full curve, poor fit] | 
Cc1cccc(NC(=O)C2C3CCCCC32)c1 (stereo unspecified) | 4.47 µM [rising, full curve, poor fit] | 
Cc1ccc(N2CCN(/N=C/c3ccccc3)CC2)cc1 | 22.4 µM [rising, single point] | 
CC(C)c1ccc(/C=N/n2cnnc2)cc1 | 7.08 µM [rising, full curve, poor fit] | 
COc1cc(S(=O)(=O)N2CCCCCC2)ccc1-n1cnnn1 | 29.1 µM [rising, single point] | 
O=C(COc1ccc(S(=O)(=O)NCc2ccccc2)cc1Cl)NCC1CCCO1 (stereo unspecified) | 23.1 µM [falling, single point] | 
COc1cccc(Nc2sc(C(=O)c3ccc(Cl)cc3)c(N)c2C(=O)NCc2ccc(C)cc2)c1 | 4.47 µM [rising, full curve, poor fit] | 11.2 µM [falling, partial curve]
O=C(Nc1ccccc1)c1ccc(Br)c(S(=O)(=O)Nc2cccnc2)c1 | 5.17 µM [falling, partial curve, poor fit] | 
CCCCOC(=O)NC1CCS(=O)(=O)C1 (stereo unspecified) | 4.11 µM [falling, single point] | 
O=C(OCC(=O)c1ccc[nH]1)c1ccc(F)c(S(=O)(=O)N2CCOCC2)c1 | 20.6 µM [rising, single point] | 
O=C(Cc1cccc2ccccc12)Nc1ccc2oc(-c3ccccc3)nc2c1 | 6.51 µM [rising, single point] | 
O=C(Nc1sccc1C(=O)NCc1ccco1)c1cccnc1 | 32.6 µM [falling, partial curve, poor fit] | 
CC(OC(=O)c1cccc(N2C(=O)c3ccccc3C2=O)c1)C(=O)Nc1ccc(N(C)C)cc1 (stereo unspecified) | 2.31 µM [rising, partial curve] | 
CCCCn1c(=O)[nH]c(=O)c2c1nc(-c1ccccc1OC(F)F)n2C | 35.5 µM [falling, single point] | 
O=C(N/N=C/c1ccoc1)c1ccccc1F | 11.2 µM [falling, partial curve, poor fit] | 

A different layout for some results above:
Compound	AC50 [1]	AC50 [2]
CC1=NN(c2ccccc2C(=O)O)C(=O)C1N=Nc1ccccc1 (stereo unspecified)	14.1 µM [falling, partial curve]	
CN(CC(=O)Nc1ccc(Cl)c(C(F)(F)F)c1)C(=O)c1cccc(N2C(=O)CCC2=O)c1	0.184 µM [rising, full curve, poor fit]	
COc1ccc(C2(O)CC3CCC(C2)N3c2nc(C)cc(C)c2C#N)cc1 (stereo unspecified)	0.184 µM [rising, partial curve, poor fit]	
Cc1ccccc1-c1nn2c(-c3ccccc3)nnc2s1	31.6 µM [falling, single point]	
CCC(OC(=O)c1cccs1)C(=O)NCc1ccc2c(c1)OCO2 (stereo unspecified)	25.9 µM [rising, single point]	
C=C(C)C1CC=C(C)/C(=N/Nc2ccccc2[N+](=O)[O-])C1 (stereo unspecified)	18.4 µM [rising, partial curve]	
CC1=C/C(=N\OS(=O)(=O)c2ccccc2)C(C(C)C)=CC1=O	29.1 µM [falling, single point]	
CC(C)(C)c1nnc2sc(SC/C(O)=C(\C#N)c3nc4ccccc4[nH]3)nn2c1=O	0.708 µM [falling, full curve, poor fit]	
CC(C)c1nnc(NC(=O)C2CCCN2C(=O)Nc2ccccc2F)s1 (stereo unspecified)		35.5 µM [falling, single point]
C=CCOc1ccc(C(=O)/C=C2/C(=O)Nc3ccccc32)cc1	35.5 µM [rising, partial curve, poor fit]	35.5 µM [falling, single point]
O=C(Nn1c(O)c(C=C2N=c3ccccc3=N2)sc1=S)c1ccccc1	0.058 µM [falling, full curve, poor fit]	
COc1ccc(-n2cc(C#N)c(=O)n(Cc3ccc(F)cc3)c2=O)cc1	20 µM [falling, partial curve, poor fit]	
COc1ccc(COC(=O)NNC(=O)c2ccccc2Cl)cc1	29.1 µM [rising, single point]	
CN(C)S(=O)(=O)c1ccc(C(=O)NCc2cccs2)cc1	0.116 µM [rising, full curve, poor fit]	
Nc1ccc(N=Nc2ccccc2)c(N)n1	11.6 µM [rising, partial curve, poor fit]	
Cc1cccc2sc(N(CCCN(C)C)C(=O)CCS(=O)(=O)c3ccccc3)nc12	10 µM [falling, partial curve]	
Cc1ccccc1OCCCn1c(=O)sc2ccccc21	6.31 µM [rising, full curve, poor fit]	
O=C(c1cc(COc2ccc(F)cc2Cl)on1)N1CC[C@@H]2CCCC[C@H]2C1	6.31 µM [rising, single point]	
CCc1ccc(Nc2nnc(SCC(=O)Nc3cccc(S(=O)(=O)NC4=NCCCCC4)c3)s2)cc1	16.4 µM [falling, partial curve]	
